Results: PubChem BioAssay AID328 (DTP/NCI, 2004)
The list is a part of this screen's results and no random one: it is rich in T/C values a quarter to a half above the control, in often repeated tests (any T/C) and in doses without a T/C. Other doses and runs of a compound stand elsewhere. T/C is the treated group as % of the vehicle group. Some entries give survivors of the animals treated and no T/C: the source holds a T/C of zero for them, seemingly a mark for toxic or unscored doses. Some survivor counts are full or nearly so, which does not show that the dose was tolerated: the source hardly ever lists a survival T/C far under the control, and the zero likely stands for such cases as well. Survivors were counted at the toxicity check, usually on the fifth day, unless a day is given; later deaths do not show. Schedule codes are those of the source, read here as Q, the interval in days (D) or hours (H), X, the number of doses. Some entries were tested several times; their values stand side by side, smallest first. For survival time, this PubChem deposit counts one and a half times the control or more as active, and values a quarter to a half above the control carry no call in these data; other NCI protocols may use other cut-offs. Some T/C values carry the count of animals alive at the toxicity check (mostly the fifth day); where none is given, no animal had died by that day.

System: BDF1 mice, P388 leukemia ip, median survival T/C
Assay: NCI In Vivo Anticancer Drug Screen. Data for tumor model P388 Leukemia (intraperitoneal) in B6D2F1 (BDF1) mice
Settings: T/C endpoint: median survival time, higher T/C = longer survival
Summary of the method: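 Compound-treated tumour-bearing mice were compared with vehicle-treated controls. Survival was recorded, and the value is the treated-group measurement divided by the control-group measurement (T/C).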

[1] = dose: 12.5 mg/kg/injection, schedule: Q01DX009 (ip), vehicle: saline
[2] = dose: 400.0 mg/kg/injection, schedule: Q01DX009 (ip), vehicle: saline with Tween-80
[3] = dose: 25.0 mg/kg/injection, schedule: Q01DX009 (ip), vehicle: saline
[4] = dose: 50.0 mg/kg/injection, schedule: Q01DX009 (ip), vehicle: saline with Tween-80

With `c1ccc(-c2c(-c3ccccc3)c(-c3ccccc3)c(-c3ccccc3)c(-c3ccccc3)c2-c2ccccc2)cc1` the survivor count (dose: 25.0 mg/kg/injection, schedule: Q01DX009 (ip), vehicle: water) was 6 of 6, the survivor count (dose: 200.0 mg/kg/injection, schedule: Q01DX009 (ip), vehicle: water) was 6 of 6 and the survivor count (dose: 400.0 mg/kg/injection, schedule: Q01DX009 (ip), vehicle: water) was 6 of 6.
`S=c1[nH]c2ccccc2s1` was tested, and the survivor count (dose: 100.0 mg/kg/injection, schedule: Q04DX003 (ip), vehicle: Klucel (hydroxypropylcellulose) (HPC)) was 6 of 6.
`COc1cc2c(c(OC)c1OC)CCC1(C)C(=O)NN=C21` (stereo not drawn) was tested, and the survivor count (dose: 50.0 mg/kg/injection, schedule: Q01DX009 (ip), vehicle: Klucel (hydroxypropylcellulose) (HPC)) was 1 of 6.
With `O=P(N1CCCC1)(N1CC1)N1CC1` the T/C (dose: 3.3 mg/kg/injection, schedule: Q04DX003 (ip), vehicle: saline) was 130 % of control, the T/C (dose: 5.0 mg/kg/injection, schedule: Q04DX003 (ip), vehicle: saline) was 134 % of control [5 of 6 alive] and the T/C (dose: 10.0 mg/kg/injection, schedule: Q01DX009 (ip), vehicle: saline) was 127 % of control. For the same compound, the survivor count (dose: 20.0 mg/kg/injection, schedule: Q01DX009 (ip), vehicle: saline) was 6 of 6, the T/C (dose: 25.0 mg/kg/injection, schedule: Q04DX003 (ip), vehicle: saline) was 125 % of control and the survivor count (dose: 50.0 mg/kg/injection, schedule: Q04DX003 (ip), vehicle: saline) was 6 of 6.
With `CN(C)c1ccc2c(c1)Cc1cc(N=C3C=CC(=O)O3)ccc1-2` the survivor count (dose: 1.56 mg/kg/injection, schedule: Q01DX009 (ip), vehicle: alcohol) was 6 of 6, the survivor count (dose: 3.12 mg/kg/injection, schedule: Q01DX009 (ip), vehicle: alcohol) was 6 of 6 and the survivor count (dose: 6.25 mg/kg/injection, schedule: Q01DX009 (ip), vehicle: alcohol) was 6 of 6. For the same compound, the survivor count [1] was 6 of 6.
For `Nc1ccn(C2OC(COP(=O)(O)O)C(O)C2O)c(=O)n1` (stereo not drawn), the T/C (dose: 14.0 mg/kg/injection, schedule: Q04DX003 (ip), vehicle: saline) was 140 % of control and the survivor count [2] was 5 of 6.
With `O=C(N[C@H](CO)[C@H](O)c1ccc([N+](=O)[O-])cc1)C(Cl)Cl` the T/C (dose: 200.0 mg/kg/injection, schedule: Q01DX009 (ip), vehicle: saline with Tween-80) was 136 % of control and the T/C [2] was 131 % of control.
For `COc1cc(N)ccc1C(=O)O`, the T/C (dose: 1.56 mg/kg/injection, schedule: Q01DX009 (ip), vehicle: saline) was 131 % of control and the survivor count [3] was 3 of 6.
In the case of `c1ccc(-c2nc3ccccc3nc2-c2ccc(Sc3ccc(-c4nc5ccccc5nc4-c4ccccc4)cc3)cc2)cc1`, the survivor count [4] is reported as 6 of 6.
`CC(C)C(=O)[O][Sn]([CH3])([CH3])[CH3]` was tested, and the survivor count (dose: 3.0 mg/kg/injection, schedule: Q01DX009 (ip), vehicle: saline) was 1 of 6.
`CCCCCCCC(=O)[O][Hg][CH2]C1COC([CH2][Hg][O]C(=O)CCCCCCC)CO1` (stereo not drawn) was tested, and the T/C (dose: 25.0 mg/kg/injection, schedule: Q01DX009 (ip), vehicle: saline sonified) was 125 % of control [5 of 6 alive], the T/C (dose: 25.0 mg/kg/injection, schedule: Q04DX003 (ip), vehicle: saline sonified) was 137 % of control and the survivor count (dose: 50.0 mg/kg/injection, schedule: Q01DX009 (ip), vehicle: saline sonified) was 6 of 6. The survivor count (dose: 100.0 mg/kg/injection, schedule: Q04DX003 (ip), vehicle: saline sonified) was 0 of 6.
`C=C1C(=O)OC2C1CC/C(C)=C/CCC1(C)OC21` (stereo not drawn) was tested, and the survivor count (dose: 140.0 mg/kg/injection, schedule: Q01DX009 (ip), vehicle: Klucel (hydroxypropylcellulose) (HPC)) was 0 of 3 and the survivor count (dose: 280.0 mg/kg/injection, schedule: Q01DX009 (ip), vehicle: Klucel (hydroxypropylcellulose) (HPC)) was 0 of 3.
For `CN(C)c1ccc(/C=C/c2ccc3ccccc3[n+]2C)cc1`, the T/C (dose: 0.78 mg/kg/injection, schedule: Q01DX009 (ip), vehicle: saline with Tween-80) was 125 % of control, the T/C (dose: 1.56 mg/kg/injection, schedule: Q01DX009 (ip), vehicle: saline with Tween-80) was 135 % of control [5 of 6 alive] and the survivor count (dose: 1.8 mg/kg/injection, schedule: Q01DX009 (ip), vehicle: Klucel (hydroxypropylcellulose) (HPC)) was 6 of 6. The T/C (dose: 2.6 mg/kg/injection, schedule: Q01DX009 (ip), vehicle: Klucel (hydroxypropylcellulose) (HPC)) was 130 % of control, the T/C (dose: 3.12 mg/kg/injection, schedule: Q01DX009 (ip), vehicle: saline with Tween-80) was 125 % of control and the T/C (dose: 4.0 mg/kg/injection, schedule: Q01DX009 (ip), vehicle: Klucel (hydroxypropylcellulose) (HPC)) was 130 % of control. The T/C (dose: 6.0 mg/kg/injection, schedule: Q01DX009 (ip), vehicle: Klucel (hydroxypropylcellulose) (HPC)) was 140 % of control, the survivor count [3] was 1 of 6 and the survivor count (dose: 50.0 mg/kg/injection, schedule: Q01DX009 (ip), vehicle: saline) was 0 of 6.
`CC1(C)N=C(N)N=C(N)N1c1ccc(OCCNC(=O)Nc2ccc(S(=O)(=O)F)cc2)c(Cl)c1` was tested, and the T/C (dose: 7.2 mg/kg/injection, schedule: Q01DX009 (ip), vehicle: saline) was 127 % of control, the T/C (dose: 11.0 mg/kg/injection, schedule: Q01DX009 (ip), vehicle: saline) was 136 % of control [5 of 6 alive] and the T/C (dose: 16.0 mg/kg/injection, schedule: Q01DX009 (ip), vehicle: saline) was 140 % of control. The T/C (dose: 66.0 mg/kg/injection, schedule: Q04DX003 (ip), vehicle: saline) was 145 % of control, the survivor count (dose: 100.0 mg/kg/injection, schedule: Q04DX003 (ip), vehicle: saline) was 3 of 6 and the survivor count (dose: 150.0 mg/kg/injection, schedule: Q01DX009 (ip), vehicle: saline) was 6 of 6. The survivor count (dose: 150.0 mg/kg/injection, schedule: Q04DX003 (ip), vehicle: saline) was 1 of 6 and 3 of 6.
With `O=C1C=CC(=O)N1CN1CCOCC1` the T/C (dose: 8.25 mg/kg/injection, schedule: Q01DX009 (ip), vehicle: saline) was 133 % of control, the T/C [1] was 125 % of control and the survivor count (dose: 26.0 mg/kg/injection, schedule: Q01DX009 (ip), vehicle: saline) was 6 of 6. The survivor count (dose: 40.0 mg/kg/injection, schedule: Q01DX009 (ip), vehicle: saline) was 0 of 6 and the survivor count (dose: 60.0 mg/kg/injection, schedule: Q01DX009 (ip), vehicle: saline) was 0 of 6.
`COc1ccc([C@@H]2c3cc4c(cc3C[C@H]3COC(=O)[C@@H]32)OCO4)cc1OC` was tested, and the T/C [4] was 127 % of control.
For `C[C@]12CCCC[C@@H]1CC[C@@H]1[C@@H]2[C@@H](O)C[C@]2(C)[C@@H](O)CC[C@@H]12`, the T/C (dose: 100.0 mg/kg/injection, schedule: Q04DX003 (ip), vehicle: saline with Tween-80) was 127 % of control.
`CCN(CC)C(=O)c1ccncc1` was tested, and the survivor count (dose: 400.0 mg/kg/injection, schedule: Q04DX003 (ip), vehicle: saline) was 2 of 6.
In the case of `N=[N+]=CC(=O)OCC(N)C(=O)O` (stereo not drawn), the T/C (dose: 3.13 mg/kg/injection, schedule: Q01DX010 (ip), vehicle: saline) is reported as 140 % of control, the T/C (dose: 5.0 mg/kg/injection, schedule: Q01DX010 (ip), vehicle: water) is reported as 140 % of control and the survivor count (dose: 25.0 mg/kg/injection, schedule: Q01DX010 (ip), vehicle: saline) is reported as 6 of 6.
For `CCCCn1nnc2c(NN)nc(N)nc21`, the survivor count (dose: 100.0 mg/kg/injection, schedule: Q01DX009 (ip), vehicle: saline with Tween-80) was 0 of 6.
With `COc1ccc(SC2=C(N(C)C(C)=O)C(=O)c3ccccc3C2=O)cc1` the survivor count (dose: 15.0 mg/kg/injection, schedule: Q01DX009 (ip), vehicle: Klucel (hydroxypropylcellulose) (HPC)) was 3 of 6, the survivor count (dose: 25.0 mg/kg/injection, schedule: Q04DX003 (ip), vehicle: Klucel (hydroxypropylcellulose) (HPC)) was 4 of 6 and the survivor count (dose: 30.0 mg/kg/injection, schedule: Q01DX009 (ip), vehicle: Klucel (hydroxypropylcellulose) (HPC)) was 6 of 6.
`Cc1ccccc1N=P(c1ccccc1)(c1ccccc1)c1ccccc1` was tested, and the survivor count (dose: 200.0 mg/kg/injection, schedule: Q01DX009 (ip), vehicle: gum acacia) was 6 of 6 and the survivor count (dose: 400.0 mg/kg/injection, schedule: Q04DX003 (ip), vehicle: gum acacia) was 6 of 6.
In the case of `O=[N+]([O-])c1ccc(/C=C/c2nccs2)o1`, the survivor count (dose: 400.0 mg/kg/injection, schedule: Q04DX003 (ip), vehicle: Klucel (hydroxypropylcellulose) (HPC)) is reported as 0 of 6.
